In PMC12864446:
No constants are given. Whether binding was seen depends on the method and setting. Binding seen in cells or lysates may run through a third protein. A result given as binding can be weak or reduced; the word gives no strength. Where a sequence is shown, tags or fusion partners need not be part of it.

By UniProt entry, the sequences of proteins in these tests, tags left out. Where a name states a change or a piece, a line headed by the entry shows the natural chain unless it says otherwise.
UniProt Q9ZVL6: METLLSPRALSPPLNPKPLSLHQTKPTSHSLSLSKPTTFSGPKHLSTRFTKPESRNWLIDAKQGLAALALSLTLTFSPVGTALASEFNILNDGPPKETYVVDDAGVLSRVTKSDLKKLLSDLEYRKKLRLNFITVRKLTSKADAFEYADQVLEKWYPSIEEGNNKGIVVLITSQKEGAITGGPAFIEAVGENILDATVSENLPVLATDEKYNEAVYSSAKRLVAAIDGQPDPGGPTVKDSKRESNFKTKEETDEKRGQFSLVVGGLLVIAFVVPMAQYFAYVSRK

Key:
[1] = biological target: nLUC-TLP18.3 (Arabidopsis thaliana) (UniProt Q9ZVL6); test: split reporter; split-luciferase complementation in intact N. benthamiana leaves; high light (600 µmol m-2 s-1) for 3 h at 2 dpi, 1 mM d-luciferin, CCD imaging; empty nLUC and cLUC as negative controls
[2] = biological target: cYFP-TLP18.3 (Arabidopsis thaliana) (UniProt Q9ZVL6); test: split reporter; BiFC with split YFP in mesophyll cells of tobacco leaves, confocal microscopy; empty vector combinations as negative controls

B1: cLUC-PsbS (protein, UniProt Q9XF91 60-265)
chain: AAPKKVEKPKSKVEDGIFGTSGGIGFTKANELFVGRVAMIGFAASLLGEALTGKGILAQLNLETGIPIYEAEPLLLFFILFTLLGAIGALGDRGKFVDDPPTGLEKAVIPPGKNVRSALGLKEQGPLFGFTKANELFVGRLAQLGIAFSLIGEIITGKGALAQLNIETGIPIQDIEPLVLLNVAFFFFAAINPGNGKFITDDGEES
For B1, the binding [1] was “binds”.

B2: PsbS-nYFP (protein, UniProt Q9XF91 60-265)
chain: B1 chain
With B2 the binding [2] was “binds”.
